Publication PMC5817353, “Iron Sulfur and Molybdenum Cofactor Enzymes Regulate the Drosophila Life Cycle by Controlling Cell Metabolism” (Frontiers in Physiology, 2018)
Results are given in words; binding and its absence hold for the method and conditions named. Some entries that bind do so weakly or less than the wild type. For some of these results: Where a sequence is shown, tags or fusion partners need not be part of it.

Sequences of proteins named here, by UniProt entry; tags and fusion partners are left off. A change or cut given only in a name is not applied to a line headed by its entry. Residues count along the entry.
UniProt Q9VKD3, residues 54-462: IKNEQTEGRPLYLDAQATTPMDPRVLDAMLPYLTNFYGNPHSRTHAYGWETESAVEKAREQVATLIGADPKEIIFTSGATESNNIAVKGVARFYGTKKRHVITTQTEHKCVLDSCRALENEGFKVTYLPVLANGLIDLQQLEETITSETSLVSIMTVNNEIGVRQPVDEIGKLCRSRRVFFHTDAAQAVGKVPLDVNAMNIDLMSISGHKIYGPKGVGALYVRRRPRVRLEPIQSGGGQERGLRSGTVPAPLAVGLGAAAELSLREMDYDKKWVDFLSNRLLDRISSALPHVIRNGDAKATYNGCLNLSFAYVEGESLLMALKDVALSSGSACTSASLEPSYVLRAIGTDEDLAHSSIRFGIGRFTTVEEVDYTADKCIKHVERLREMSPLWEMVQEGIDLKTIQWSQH
UniProt Q16595, residues 42-210: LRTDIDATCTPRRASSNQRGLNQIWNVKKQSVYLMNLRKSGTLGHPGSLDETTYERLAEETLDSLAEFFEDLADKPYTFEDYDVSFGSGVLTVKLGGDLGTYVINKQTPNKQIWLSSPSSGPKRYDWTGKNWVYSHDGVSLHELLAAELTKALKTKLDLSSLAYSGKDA

T1: Drosophila His6-Isd11 (CG3717) (Drosophila melanogaster) (UniProt O46098)
T1 sequence: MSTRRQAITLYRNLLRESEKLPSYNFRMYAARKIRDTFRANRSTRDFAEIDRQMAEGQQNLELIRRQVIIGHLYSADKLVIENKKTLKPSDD

T2: Drosophila His6-IscU (Drosophila melanogaster) (UniProt Q9VHK6)
T2 sequence: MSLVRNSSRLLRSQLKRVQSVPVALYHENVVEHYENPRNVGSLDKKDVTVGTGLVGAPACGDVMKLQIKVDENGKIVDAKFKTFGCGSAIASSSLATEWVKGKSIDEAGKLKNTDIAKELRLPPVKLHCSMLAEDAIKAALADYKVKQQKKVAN

B1: Drosophila Isd11 (CG3717), no tag named, as in the ternary complex (protein, UniProt O46098 1-92)
chain: T1 sequence

Tests used:
[1] = target: Drosophila Nfs1^Δ1–53/Isd11/IscU complex (Drosophila melanogaster, UniProt Q9VKD3 54-462; O46098 1-92; Q9VHK6 1-154); test: SEC; human frataxin added to the purified Nfs1^Δ1–53/Isd11/IscU complex; analytical Superdex200 column, fractions compared by SDS-PAGE; binding shown by a further increase in size; both purified
[2] = target: T1, Drosophila His6-Isd11 (CG3717) (Drosophila melanogaster); test: affinity co-purification of co-expressed proteins + SEC; Nfs1^Δ1–53 co-expressed with Isd11 and/or IscU in E. coli; complexes purified by affinity chromatography; 30 μM Nfs1^Δ1–53 applied onto an analytical Superdex200 column, fractions compared by SDS-PAGE
[3] = target: T2, Drosophila His6-IscU (Drosophila melanogaster); test: as above

| Molecule | binding [1] | binding [2] | binding [3] |
| --- | --- | --- | --- |
| human frataxin (FXN) (from UniProt Q16595 42-210) | binds |  |  |
| Drosophila Nfs1^Δ1–53 (L-cysteine desulfurase, CG12264, first 53 amino acids removed) (from UniProt Q9VKD3 54-462) (enzyme) |  | binds | binds |
| B1 |  |  | binds |
